In PMC12741050:
Results are given in words; binding and its absence hold for the method and conditions named. In cells and extracts the contact can be indirect. Some binding calls cover weakened binding; strength is not graded here.

Amino acid sequences for entries named in this document (tags omitted).
UniProt P19474: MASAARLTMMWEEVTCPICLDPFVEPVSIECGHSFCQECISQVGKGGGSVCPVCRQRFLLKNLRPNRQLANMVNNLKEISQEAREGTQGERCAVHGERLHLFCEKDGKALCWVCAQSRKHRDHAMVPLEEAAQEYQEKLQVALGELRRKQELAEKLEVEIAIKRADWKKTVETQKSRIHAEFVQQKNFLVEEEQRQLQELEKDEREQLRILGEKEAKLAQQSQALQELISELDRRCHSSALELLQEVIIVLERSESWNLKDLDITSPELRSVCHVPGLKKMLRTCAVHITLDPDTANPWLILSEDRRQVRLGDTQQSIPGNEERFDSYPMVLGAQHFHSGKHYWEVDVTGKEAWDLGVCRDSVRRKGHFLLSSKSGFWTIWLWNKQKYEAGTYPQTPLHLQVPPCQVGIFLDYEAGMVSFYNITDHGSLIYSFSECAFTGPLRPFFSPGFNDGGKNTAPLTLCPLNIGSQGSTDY

Target: HA-TRIM21 (human TRIM21 pcDNA3.1-HA-C) (human) (UniProt P19474)
Experiment: co-IP; CRC cell lysates; protein A/G magnetic beads with antibody or anti-Flag / anti-HA magnetic beads, overnight at 4 °C, six washes with lysis buffer, Western blot

binding: binds
B1: SLC25A10 in CRC cells (no SLC25A10 construct named) (protein, UniProt Q9UBX3 1-287)
chain: MAAEARVSRWYFGGLASCGAACCTHPLDLLKVHLQTQQEVKLRMTGMALRVVRTDGILALYSGLSASLCRQMTYSLTRFAIYETVRDRVAKGSQGPLPFHEKVLLGSVSGLAGGFVGTPADLVNVRMQNDVKLPQGQRRNYAHALDGLYRVAREEGLRRLFSGATMASSRGALVTVGQLSCYDQAKQLVLSTGYLSDNIFTHFVASFIAGGCATFLCQPLDVLKTRLMNSKGEYQGVFHCAVETAKLGPLAFYKGLVPAGIRLIPHTVLTFVFLEQLRKNFGIKVPS
